The results in this text go back to US20030194736.

Common to all, as to experiment: enzyme reaction in vitro
In data set [1] the test system is N.BstNBI nicking endonuclease. The note with it: in plasmid pNEB200A; 10 mM MgCl2, 150 mM KCl, 55 C; purified recombinant protein; protein details: New England Biolabs; only the site is given.
The test system of data set [2] is XbaI restriction endonuclease. The note with it: purified recombinant protein, protein details: New England Biolabs, only the site is given.
For data set [3], the system named is USER Enzyme (UDG + EndoVIII mixture). The note with it: deoxyuridine at position 16 (n) of top strand [n positions 16 = modified dU]; 10 pmol substrate nicked to completion by 0.2 unit UDG + at least 31.25 ng EndoVIII; 15 min 37 C, T4 ligase buffer, 10 mM MgCl2; purified recombinant protein; protein details: New England Biolabs; label: fluorescein at 5' and 3' ends of top strand.

Data set [4] has as its system USER Enzyme 2 (UDG + FPG mixture). The note with it: deoxyuridine at position 16 (n) of top strand [n positions 16 = modified dU]; 10 pmol substrate nicked to completion by 0.1 unit UDG + at least 145 ng FPG (290 ng in figure legend); 15 min 37 C, 10 mM MgCl2; purified recombinant protein; label: fluorescein at 5' and 3' ends of top strand.
The target of data set [5] is T1, BamHI restriction endonuclease (UniProt P23940).
T1 sequence (looked up, limits assumed): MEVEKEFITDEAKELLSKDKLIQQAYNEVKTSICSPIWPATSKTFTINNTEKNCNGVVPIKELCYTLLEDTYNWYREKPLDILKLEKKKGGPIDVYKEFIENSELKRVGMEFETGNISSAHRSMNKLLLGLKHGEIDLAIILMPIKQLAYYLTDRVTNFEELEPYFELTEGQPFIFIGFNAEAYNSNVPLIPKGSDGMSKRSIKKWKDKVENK
To be noted: NEBuffer 4, 37 C, purified recombinant protein, protein details: New England Biolabs, only the site is given.

For some assays here: Where a protein sequence is shown, tags need not be part of it. For some assays here: The exact form of at least one protein or probe is not confirmed.

As to “ACGAGACTCTAGAGGATCCTCTAGAGTCTGGT (double strand) [pNEB200A cassette]”, the “activity on this sequence” value was “active” in data set [1] and “active” in data set [2] (in plasmid pNEB200A, 10 mM MgCl2, 150 mM KCl, 37 C). As for “GATTTCATTTTTATTTATAACTTTACTTATATTG (double strand) [34-bp duplex with single dU:dA]”, the “activity on this sequence” value in data set [3] and in data set [4] was “active” each time. “GCTGAGGGAAAGTCTAGATGTCTCCTCAGC (double strand) [pNEB205A cassette]”: the “activity on this sequence” value in data set [2] (in plasmid pNEB205A, NEBuffer 4, 10 mM Mg acetate, 37 C) is “active”. Turning to “GCTGAGGGGGGGATCCTTTTCATGGATCCCCCCCTCAGC (double strand) [pUC-TT cassette]”, the “activity on this sequence” value in data set [5] (in plasmid pUC-TT) is listed as “active”. Turning to “GCTGAGGGGGGGATCCTTTTCATTCTAGATGTCTCCTCAGC (double strand) [pNEB210A cassette]”, the “activity on this sequence” value in data set [5] (in plasmid pNEB210A) is on record as “active”; in data set [2] (in plasmid pNEB210A, NEBuffer 4, 37 C), “active”.
